Results taken from patent US11197862B2, “Methods of preventing toxicity of platinum drugs” (XOMICS BIOPHARMA, INC., priority 2015, dated 2021).
Some of these results come from one statement about several compounds together.

Target: T1, OCT2 (Homo sapiens, UniProt O15244)
T1 sequence (O15244 1-555): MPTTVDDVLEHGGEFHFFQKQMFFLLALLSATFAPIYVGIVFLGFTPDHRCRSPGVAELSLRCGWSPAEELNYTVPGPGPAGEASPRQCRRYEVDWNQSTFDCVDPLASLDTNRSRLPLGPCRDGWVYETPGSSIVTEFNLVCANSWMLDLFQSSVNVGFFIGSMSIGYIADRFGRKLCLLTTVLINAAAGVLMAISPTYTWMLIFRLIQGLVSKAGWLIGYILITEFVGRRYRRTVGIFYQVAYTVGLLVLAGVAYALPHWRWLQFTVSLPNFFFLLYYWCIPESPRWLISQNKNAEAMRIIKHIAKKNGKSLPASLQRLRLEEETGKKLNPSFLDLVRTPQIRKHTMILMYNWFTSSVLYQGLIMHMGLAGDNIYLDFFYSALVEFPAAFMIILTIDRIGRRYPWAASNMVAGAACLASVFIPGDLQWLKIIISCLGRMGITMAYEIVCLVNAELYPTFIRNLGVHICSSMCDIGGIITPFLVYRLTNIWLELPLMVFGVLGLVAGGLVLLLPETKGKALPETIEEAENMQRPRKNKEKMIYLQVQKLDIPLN
Assay: Inhibition of OCT2-mediated oxaliplatin uptake in transfected MDCK-II cells (protein-free HBSS)
Conditions: comparison of Table 1 potencies
From the text: Fully confluent MDCK cell monolayers were transfected with either cDNA plasmids encoding the human transporter to be tested or a GFP control. […] The cells were then washed with ice-cold PBS and lysed with 50:50 acetonitrile:H2O. Intracellular content of the substrate was quantified by LC/MS/MS or a MicroBeta radiometric plate reader.

C[N+]1(C)[C@@H]2C[C@@H](OC(=O)C(O)(c3cccs3)c3cccs3)C[C@H]1[C@@H]1O[C@@H]12 [Tiotropium•Br]
fold higher potency in inhibiting OCT2-mediated transport of oxaliplatin than that of metformin: over 10 fold
